{"source": "patent US20170143647A1", "about": "“INTESTINAL FLORA IMPROVING COMPOSITION CONTAINING ASTAXANTHIN AND ITS USE” (THE DOSHISHA, priority 2013, published 2017)", "key": {"[1]": {"assay": "Content of DNA extracted from feces (NanoDrop method)", "format": "in vivo, ICR mice", "conditions": "mean value of Day 0, Day 14 and Day 28, mean±SD"}, "[2]": {"assay": "Properties (color) of feces", "format": "in vivo, ICR mice"}}, "data": [{"compound": "CC1=C(/C=C/C(C)=C/C=C/C(C)=C/C=C/C=C(C)/C=C/C=C(C)/C=C/C2=C(C)C(=O)C(O)CC2(C)C)C(C)(C)CC(O)C1=O", "note": "(stereo not drawn) [astaxanthin, 3,3′-dihydroxy-β,β-carotene-4,4′-dione]", "values": [{"measurement": "DNA content of feces", "setting": "[1]; group CA: ordinary diet + 0.02% astaxanthin", "value": "102.7 ± 28.5", "unit": "ng/µL"}, {"measurement": "DNA content of feces", "setting": "[1]; group HA: high-fat diet + 0.02% astaxanthin", "value": "66.9 ± 28.4", "unit": "ng/µL"}, {"measurement": "color of the feces", "setting": "[2]; group CA: ordinary diet + astaxanthin", "value": "red brown"}, {"measurement": "color of the feces", "setting": "[2]; group HA: high-fat diet + astaxanthin", "value": "red to orange"}]}]}
